Laboratory results: the supplement of paper PMC6411743
± gives the standard deviation of the averaged measurements. The list shows a part of the results, in another mix than the full data.

By UniProt entry, the sequences of proteins in these tests, tags left out. Where a name states a change or a piece, a line headed by the entry shows the natural chain unless it says otherwise.
UniProt Q3SXY8: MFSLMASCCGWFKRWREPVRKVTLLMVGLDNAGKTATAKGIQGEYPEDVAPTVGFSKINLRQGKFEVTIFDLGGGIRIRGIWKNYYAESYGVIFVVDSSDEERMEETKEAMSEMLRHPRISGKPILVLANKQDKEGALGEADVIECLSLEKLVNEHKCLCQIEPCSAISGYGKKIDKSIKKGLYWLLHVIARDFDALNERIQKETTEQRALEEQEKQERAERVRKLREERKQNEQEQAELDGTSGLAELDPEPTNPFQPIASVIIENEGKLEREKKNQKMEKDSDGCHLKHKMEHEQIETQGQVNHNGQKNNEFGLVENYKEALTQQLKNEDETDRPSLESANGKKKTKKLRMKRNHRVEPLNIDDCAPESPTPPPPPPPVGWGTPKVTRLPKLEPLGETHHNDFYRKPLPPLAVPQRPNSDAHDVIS
UniProt Q16864, whole entry: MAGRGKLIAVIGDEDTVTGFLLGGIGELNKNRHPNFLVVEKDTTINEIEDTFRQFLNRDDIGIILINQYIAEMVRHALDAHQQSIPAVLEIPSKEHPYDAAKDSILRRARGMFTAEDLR
UniProt Q15181: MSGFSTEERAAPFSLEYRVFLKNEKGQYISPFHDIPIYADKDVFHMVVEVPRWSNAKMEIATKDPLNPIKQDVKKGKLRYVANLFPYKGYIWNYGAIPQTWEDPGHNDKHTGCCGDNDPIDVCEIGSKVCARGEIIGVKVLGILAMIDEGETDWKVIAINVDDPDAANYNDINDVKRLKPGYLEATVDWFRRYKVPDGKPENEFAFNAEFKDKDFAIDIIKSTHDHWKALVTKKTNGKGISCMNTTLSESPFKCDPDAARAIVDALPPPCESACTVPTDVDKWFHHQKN
UniProt Q16531, whole entry: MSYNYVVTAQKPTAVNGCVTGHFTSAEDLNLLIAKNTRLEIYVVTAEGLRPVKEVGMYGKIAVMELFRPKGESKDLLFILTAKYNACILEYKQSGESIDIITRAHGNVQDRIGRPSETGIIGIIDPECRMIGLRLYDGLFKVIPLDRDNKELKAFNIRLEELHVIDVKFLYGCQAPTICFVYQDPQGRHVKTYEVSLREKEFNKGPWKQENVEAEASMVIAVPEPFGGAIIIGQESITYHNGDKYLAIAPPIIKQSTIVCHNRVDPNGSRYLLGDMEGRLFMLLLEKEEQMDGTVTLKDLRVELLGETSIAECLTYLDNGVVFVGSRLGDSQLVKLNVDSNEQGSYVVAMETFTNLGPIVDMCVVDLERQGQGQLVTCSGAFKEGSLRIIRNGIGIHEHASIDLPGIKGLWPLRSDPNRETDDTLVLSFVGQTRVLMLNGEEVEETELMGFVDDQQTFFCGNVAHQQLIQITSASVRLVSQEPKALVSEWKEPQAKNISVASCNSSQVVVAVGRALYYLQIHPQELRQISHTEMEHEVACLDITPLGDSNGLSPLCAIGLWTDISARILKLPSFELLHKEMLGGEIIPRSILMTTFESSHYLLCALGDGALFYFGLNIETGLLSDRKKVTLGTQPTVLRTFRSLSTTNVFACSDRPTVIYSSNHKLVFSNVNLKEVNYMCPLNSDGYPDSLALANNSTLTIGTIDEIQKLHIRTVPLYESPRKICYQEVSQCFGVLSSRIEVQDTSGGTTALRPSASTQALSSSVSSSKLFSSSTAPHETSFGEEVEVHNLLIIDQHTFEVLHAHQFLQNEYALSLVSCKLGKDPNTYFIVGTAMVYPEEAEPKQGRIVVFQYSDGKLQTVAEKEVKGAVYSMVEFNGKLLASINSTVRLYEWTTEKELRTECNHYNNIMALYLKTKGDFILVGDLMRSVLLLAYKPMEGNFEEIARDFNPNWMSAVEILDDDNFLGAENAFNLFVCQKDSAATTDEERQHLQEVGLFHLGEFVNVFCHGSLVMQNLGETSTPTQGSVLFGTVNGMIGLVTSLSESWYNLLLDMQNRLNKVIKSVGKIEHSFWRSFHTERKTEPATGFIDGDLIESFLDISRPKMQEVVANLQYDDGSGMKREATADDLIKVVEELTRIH
UniProt Q5BKX5: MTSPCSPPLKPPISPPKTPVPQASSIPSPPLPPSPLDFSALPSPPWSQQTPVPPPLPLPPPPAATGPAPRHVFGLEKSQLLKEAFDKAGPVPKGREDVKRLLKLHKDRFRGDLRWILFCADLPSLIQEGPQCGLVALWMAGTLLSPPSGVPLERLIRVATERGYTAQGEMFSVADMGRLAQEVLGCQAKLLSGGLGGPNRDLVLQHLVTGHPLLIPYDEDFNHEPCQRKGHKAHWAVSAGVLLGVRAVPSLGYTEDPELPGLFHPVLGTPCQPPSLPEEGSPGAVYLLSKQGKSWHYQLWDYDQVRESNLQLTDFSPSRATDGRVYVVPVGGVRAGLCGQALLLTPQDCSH
UniProt Q59H18: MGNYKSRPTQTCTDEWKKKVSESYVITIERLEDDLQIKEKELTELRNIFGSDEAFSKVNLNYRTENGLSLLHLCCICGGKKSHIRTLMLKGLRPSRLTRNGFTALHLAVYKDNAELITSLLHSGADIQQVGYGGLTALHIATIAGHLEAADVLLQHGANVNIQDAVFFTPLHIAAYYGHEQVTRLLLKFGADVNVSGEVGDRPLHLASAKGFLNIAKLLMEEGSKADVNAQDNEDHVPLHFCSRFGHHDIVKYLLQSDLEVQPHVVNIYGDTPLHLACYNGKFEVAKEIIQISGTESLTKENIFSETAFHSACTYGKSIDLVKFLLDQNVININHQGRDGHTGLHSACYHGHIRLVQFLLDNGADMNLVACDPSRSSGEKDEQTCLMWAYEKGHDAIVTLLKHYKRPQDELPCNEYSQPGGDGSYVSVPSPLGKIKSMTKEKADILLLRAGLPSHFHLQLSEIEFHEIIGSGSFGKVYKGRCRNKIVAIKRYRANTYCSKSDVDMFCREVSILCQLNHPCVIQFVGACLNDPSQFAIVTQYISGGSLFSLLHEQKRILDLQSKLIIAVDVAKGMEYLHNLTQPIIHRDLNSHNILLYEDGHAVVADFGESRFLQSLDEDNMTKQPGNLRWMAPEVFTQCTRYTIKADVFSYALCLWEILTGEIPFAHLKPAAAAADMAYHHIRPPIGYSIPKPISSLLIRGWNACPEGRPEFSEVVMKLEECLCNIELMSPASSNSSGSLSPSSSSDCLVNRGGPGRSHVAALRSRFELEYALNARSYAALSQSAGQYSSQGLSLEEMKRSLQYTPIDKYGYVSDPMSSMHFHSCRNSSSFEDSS
UniProt Q9H6K1: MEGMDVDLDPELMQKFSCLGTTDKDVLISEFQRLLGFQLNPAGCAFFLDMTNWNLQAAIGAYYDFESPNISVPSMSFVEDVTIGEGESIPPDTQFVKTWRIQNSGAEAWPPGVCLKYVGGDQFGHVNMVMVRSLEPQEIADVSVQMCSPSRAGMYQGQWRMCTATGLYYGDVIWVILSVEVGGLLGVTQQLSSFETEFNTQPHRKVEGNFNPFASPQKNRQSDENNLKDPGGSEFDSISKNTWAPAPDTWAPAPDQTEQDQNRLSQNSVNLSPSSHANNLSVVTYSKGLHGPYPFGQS
UniProt Q2M296: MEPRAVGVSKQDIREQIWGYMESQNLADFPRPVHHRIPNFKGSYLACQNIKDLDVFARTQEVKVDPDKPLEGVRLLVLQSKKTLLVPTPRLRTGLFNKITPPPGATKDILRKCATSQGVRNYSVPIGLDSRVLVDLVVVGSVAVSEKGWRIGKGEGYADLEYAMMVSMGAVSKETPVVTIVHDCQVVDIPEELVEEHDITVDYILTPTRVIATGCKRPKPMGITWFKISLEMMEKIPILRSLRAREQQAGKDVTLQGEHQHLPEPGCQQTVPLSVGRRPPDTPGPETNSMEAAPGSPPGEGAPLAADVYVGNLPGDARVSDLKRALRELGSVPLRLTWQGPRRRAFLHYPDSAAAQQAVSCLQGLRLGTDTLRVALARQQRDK
UniProt Q5JTH9: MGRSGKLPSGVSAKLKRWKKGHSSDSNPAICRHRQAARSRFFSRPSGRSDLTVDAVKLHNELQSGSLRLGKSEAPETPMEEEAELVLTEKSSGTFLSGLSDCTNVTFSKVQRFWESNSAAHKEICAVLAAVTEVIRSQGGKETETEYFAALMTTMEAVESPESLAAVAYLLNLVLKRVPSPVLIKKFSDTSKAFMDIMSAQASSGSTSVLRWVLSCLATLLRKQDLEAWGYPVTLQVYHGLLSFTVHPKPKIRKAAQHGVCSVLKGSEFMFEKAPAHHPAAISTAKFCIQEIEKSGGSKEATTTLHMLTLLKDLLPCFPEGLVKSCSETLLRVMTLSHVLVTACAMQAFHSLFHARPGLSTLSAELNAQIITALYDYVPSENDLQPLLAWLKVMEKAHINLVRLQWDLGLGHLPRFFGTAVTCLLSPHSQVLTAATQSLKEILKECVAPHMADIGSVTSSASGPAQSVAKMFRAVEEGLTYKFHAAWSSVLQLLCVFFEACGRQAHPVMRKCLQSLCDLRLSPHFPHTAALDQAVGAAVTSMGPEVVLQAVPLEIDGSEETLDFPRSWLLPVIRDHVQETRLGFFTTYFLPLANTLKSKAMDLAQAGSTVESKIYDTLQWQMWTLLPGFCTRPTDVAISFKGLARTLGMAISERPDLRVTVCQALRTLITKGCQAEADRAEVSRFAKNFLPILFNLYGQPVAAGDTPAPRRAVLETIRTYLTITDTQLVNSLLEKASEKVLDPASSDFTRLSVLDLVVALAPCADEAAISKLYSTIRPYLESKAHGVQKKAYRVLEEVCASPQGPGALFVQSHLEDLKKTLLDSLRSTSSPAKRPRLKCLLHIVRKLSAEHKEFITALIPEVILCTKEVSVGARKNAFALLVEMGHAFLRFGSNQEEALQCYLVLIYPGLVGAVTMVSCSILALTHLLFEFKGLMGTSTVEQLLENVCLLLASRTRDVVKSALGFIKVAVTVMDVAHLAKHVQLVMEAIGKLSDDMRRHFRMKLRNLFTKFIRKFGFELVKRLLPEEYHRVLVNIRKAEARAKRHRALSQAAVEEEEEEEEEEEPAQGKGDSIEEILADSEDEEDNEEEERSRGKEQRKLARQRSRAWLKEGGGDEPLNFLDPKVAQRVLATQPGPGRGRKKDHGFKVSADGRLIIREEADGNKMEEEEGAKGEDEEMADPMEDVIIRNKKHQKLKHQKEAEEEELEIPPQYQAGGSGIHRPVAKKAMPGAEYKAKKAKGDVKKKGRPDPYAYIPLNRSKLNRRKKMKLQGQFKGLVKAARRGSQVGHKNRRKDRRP
UniProt Q5JS37: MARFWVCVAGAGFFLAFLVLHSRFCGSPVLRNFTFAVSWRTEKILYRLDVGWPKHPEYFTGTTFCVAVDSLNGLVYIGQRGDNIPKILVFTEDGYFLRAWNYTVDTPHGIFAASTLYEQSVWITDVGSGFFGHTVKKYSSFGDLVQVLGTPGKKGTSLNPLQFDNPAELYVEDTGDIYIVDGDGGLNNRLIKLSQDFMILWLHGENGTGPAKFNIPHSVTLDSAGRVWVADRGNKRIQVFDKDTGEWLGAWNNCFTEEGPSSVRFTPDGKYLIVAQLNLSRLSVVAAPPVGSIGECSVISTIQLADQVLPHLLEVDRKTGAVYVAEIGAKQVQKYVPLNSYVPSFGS
UniProt Q16630, whole entry: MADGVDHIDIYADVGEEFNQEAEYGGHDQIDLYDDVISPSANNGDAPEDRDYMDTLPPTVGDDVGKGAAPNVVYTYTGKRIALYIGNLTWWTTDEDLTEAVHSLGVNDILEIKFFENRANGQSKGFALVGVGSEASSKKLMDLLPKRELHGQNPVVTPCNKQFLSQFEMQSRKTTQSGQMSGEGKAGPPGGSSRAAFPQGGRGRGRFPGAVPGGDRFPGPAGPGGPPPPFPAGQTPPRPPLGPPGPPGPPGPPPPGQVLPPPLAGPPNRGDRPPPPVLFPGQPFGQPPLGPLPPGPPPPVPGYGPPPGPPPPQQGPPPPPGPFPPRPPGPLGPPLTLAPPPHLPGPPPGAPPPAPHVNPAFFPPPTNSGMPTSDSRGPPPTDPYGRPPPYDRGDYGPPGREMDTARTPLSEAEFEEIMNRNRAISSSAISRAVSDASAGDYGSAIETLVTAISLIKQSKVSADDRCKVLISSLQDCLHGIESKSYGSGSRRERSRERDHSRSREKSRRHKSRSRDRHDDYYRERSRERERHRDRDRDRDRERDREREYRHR
UniProt Q3ZAQ7: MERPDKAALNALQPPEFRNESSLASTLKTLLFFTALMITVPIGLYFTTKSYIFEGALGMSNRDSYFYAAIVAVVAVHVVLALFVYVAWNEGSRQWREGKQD
UniProt Q5SWX8: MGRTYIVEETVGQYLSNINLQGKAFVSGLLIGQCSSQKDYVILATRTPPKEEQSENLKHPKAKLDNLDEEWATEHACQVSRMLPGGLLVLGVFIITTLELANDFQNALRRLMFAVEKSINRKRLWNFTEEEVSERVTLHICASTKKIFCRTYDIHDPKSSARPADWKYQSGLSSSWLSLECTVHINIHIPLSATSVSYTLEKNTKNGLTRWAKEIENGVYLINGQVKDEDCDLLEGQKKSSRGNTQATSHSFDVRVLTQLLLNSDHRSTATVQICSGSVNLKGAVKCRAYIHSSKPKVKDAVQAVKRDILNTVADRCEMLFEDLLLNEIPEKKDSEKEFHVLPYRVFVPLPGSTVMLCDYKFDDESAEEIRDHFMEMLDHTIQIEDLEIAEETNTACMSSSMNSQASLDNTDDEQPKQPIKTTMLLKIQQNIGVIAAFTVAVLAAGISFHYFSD

Compound: Nc1ncnc2c1ncn2[C@@H]1O[C@H](COP(=O)(O)OP(=O)(O)NP(=O)(O)O)[C@@H](O)[C@H]1O [adenylyl imidodiphosphate]
Experiment: NP40-soluble protein abundance relative to vehicle (solubility fold change) (ratio); higher = more soluble protein in presence of AMP-PNP
Procedure, shortened: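 Across three independent experiments, values are fold changes against the detergent-processed vehicle for each replicate, based on vsn-normalised intensities. The samples were Jurkat crude lysate treated with eight concentrations (0.1 to 10 mM) for 10 min at room temperature and then 3 min at 37 °C. Lysate was solubilised with 0.8% NP40 and benzonase, ultracentrifuged, and the supernatant analysed by TMT-labelled LC-MS/MS.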

Target	NP40-soluble protein abundance (concentration: 1mM)	NP40-soluble protein abundance (concentration: 2mM)	NP40-soluble protein abundance (concentration: 4mM)	NP40-soluble protein abundance (concentration: 6mM)	NP40-soluble protein abundance (concentration: 8mM)	NP40-soluble protein abundance (concentration: 10mM)
UniProt Q5H8A4-5	0.979 ± 0.011	0.971 ± 0.019	0.983 ± 0.034	0.92 ± 0.01	0.9558 ± 0.0061	0.952 ± 0.016
ARL13B (UniProt Q3SXY8)	1.015 ± 0.0088	1.035 ± 0.0051	1.03 ± 0.026	1.02 ± 0.014	0.982 ± 0.04	1 ± 0.077
LGALSL (UniProt Q3ZCW2)	1 ± 0.035	1.01 ± 0.061	1.01 ± 0.058	1.02 ± 0.021	1 ± 0.022	1.02 ± 0.025
UniProt Q2PPJ7 and related entries	1.02 ± 0.038	1.16 ± 0.18	1.03 ± 0.05	0.958 ± 0.045	0.948 ± 0.053	1.02 ± 0.12
UniProt Q15777 and related entries	0.975 ± 0.012	0.966 ± 0.042	0.975 ± 0.024	0.974 ± 0.028	0.99 ± 0.012	0.964 ± 0.045
UniProt Q5T4S7 and related entries	0.962 ± 0.07	0.919 ± 0.095	0.943 ± 0.087	0.9 ± 0.1	0.899 ± 0.1	0.885 ± 0.13
TP53I3 (UniProt Q53FA7)	1.02 ± 0.036	0.999 ± 0.018	1.04 ± 0.025	1 ± 0.028	1 ± 0.017	1.01 ± 0.023
ZC3H13 (UniProt Q5T200)	1.063 ± 0.0095	1.12 ± 0.084	1.09 ± 0.029	1.09 ± 0.047	1.09 ± 0.018	1.13 ± 0.011
UniProt Q16611 and related entries	0.994 ± 0.035	0.952 ± 0.016	0.985 ± 0.043	0.96 ± 0.023	0.974 ± 0.032	0.932 ± 0.026
UniProt Q5TA45 and related entries	0.966 ± 0.061	0.924 ± 0.015	1 ± 0.042	1.04 ± 0.039	1.04 ± 0.047	1.03 ± 0.035
UniProt Q16851 and related entries	0.977 ± 0.02	0.919 ± 0.051	0.962 ± 0.032	0.957 ± 0.031	0.975 ± 0.044	0.955 ± 0.06
UniProt Q15120 and related entries	0.996 ± 0.09	0.958 ± 0.12	1.03 ± 0.14	1.02 ± 0.085	1.04 ± 0.075	1.06 ± 0.12
UniProt Q16864 and related entries	1.02 ± 0.035	1.04 ± 0.037	0.983 ± 0.055	0.95 ± 0.0046	0.95 ± 0.015	0.909 ± 0.045
SF3B4 (UniProt Q15427)	1.06 ± 0.065	1.05 ± 0.014	1.1 ± 0.055	1.07 ± 0.028	1.11 ± 0.086	1.08 ± 0.061
UniProt Q15370 and related entries	0.96 ± 0.035	0.975 ± 0.081	0.947 ± 0.06	1.1 ± 0.14	1.1 ± 0.084	1.1 ± 0.1
UniProt Q2KHR3 and related entries	1.017 ± 0.0039	0.9946 ± 0.0019	1.025 ± 0.0071	0.99367 ± 0.00071	0.993 ± 0.033	1.01 ± 0.023
PPA1 (UniProt Q15181)	0.998 ± 0.025	0.987 ± 0.022	0.958 ± 0.027	1 ± 0.019	0.989 ± 0.021	0.989 ± 0.027
UniProt Q16531 and related entries	0.959 ± 0.02	0.855 ± 0.11	0.925 ± 0.013	0.921 ± 0.028	0.9579 ± 0.004	0.908 ± 0.028
RHEB (UniProt Q15382)	1 ± 0.033	0.987 ± 0.063	0.969 ± 0.084	1.01 ± 0.011	0.974 ± 0.047	0.962 ± 0.073
C19orf54 (UniProt Q5BKX5)	1.01 ± 0.016	0.994 ± 0.066	1.01 ± 0.043	0.999 ± 0.027	0.978 ± 0.04	0.985 ± 0.038

Target	NP40-soluble protein abundance (concentration: 1mM)	NP40-soluble protein abundance (concentration: 2mM)	NP40-soluble protein abundance (concentration: 4mM)	NP40-soluble protein abundance (concentration: 6mM)	NP40-soluble protein abundance (concentration: 8mM)	NP40-soluble protein abundance (concentration: 10mM)
UniProt Q53EL6 and related entries	1.1 ± 0.054	1.14 ± 0.085	1.17 ± 0.1	1.18 ± 0.12	1.21 ± 0.12	1.29 ± 0.11
UniProt Q5TKA1 and related entries	0.9726 ± 0.0082	1.03 ± 0.015	1.02 ± 0.047	0.9854 ± 0.0069	0.979 ± 0.019	0.984 ± 0.039
UniProt Q16539 and related entries	1.01 ± 0.037	0.932 ± 0.075	0.977 ± 0.026	0.971 ± 0.037	1 ± 0.059	0.931 ± 0.025
Q59H18-1|Q59H18-3|Q59H18-4|V9GXZ4 (UniProt V9GXZ4+Q59H18)	1.01 ± 0.042	0.95 ± 0.032	1.04 ± 0.17	1.09 ± 0.014	1.029 ± 0.0037	0.982 ± 0.072
UniProt Q3B7T1 and related entries	1.01 ± 0.01	0.986 ± 0.016	0.988 ± 0.039	0.981 ± 0.046	1.009 ± 0.0097	0.988 ± 0.044
FSCN1 (UniProt Q16658)	0.979 ± 0.0099	0.992 ± 0.027	1 ± 0.015	1.04 ± 0.045	1.02 ± 0.068	1.02 ± 0.039
UniProt Q53H47 and related entries	1.017 ± 0.0058	1.03 ± 0.015	1.02 ± 0.02	1.02 ± 0.015	1.007 ± 0.0082	1.01 ± 0.045
Q5TH58 and related entries (UniProt Q9H6K1)	0.998 ± 0.02	1.03 ± 0.039	0.9959 ± 0.0093	1.006 ± 0.0065	0.974 ± 0.0093	0.989 ± 0.019
UniProt Q2M296 and related entries	0.97439 ± 0.00096	1.03 ± 0.039	1 ± 0.033	1.08 ± 0.071	1.08 ± 0.043	1.09 ± 0.1
UniProt Q2TBE0 and related entries	1.06 ± 0.036	1.09 ± 0.03	1.11 ± 0.046	1.1 ± 0.049	1.1 ± 0.033	1.15 ± 0.049
UniProt Q5JTH9 and related entries	1.017 ± 0.0055	1.01 ± 0.036	1.01 ± 0.015	0.982 ± 0.019	0.994 ± 0.025	1.01 ± 0.036
UniProt Q5T3J3	1.05 ± 0.018	1.08 ± 0.063	1.06 ± 0.059	1.08 ± 0.019	1.07 ± 0.034	1.13 ± 0.084
PTGES3 (UniProt Q15185)	1.01 ± 0.056	1.06 ± 0.12	1.01 ± 0.072	1.11 ± 0.083	1.11 ± 0.063	1.11 ± 0.048
UniProt Q5T440	0.976 ± 0.022	0.925 ± 0.039	1 ± 0.04	0.99 ± 0.079	1.03 ± 0.029	1.05 ± 0.078
UniProt Q15542 and related entries	1.02 ± 0.015	0.988 ± 0.035	1.04 ± 0.048	1.06 ± 0.06	1.06 ± 0.032	1.09 ± 0.052
CDCA8 (UniProt Q53HL2)	1.02 ± 0.042	1.02 ± 0.019	1.02 ± 0.034	1.06 ± 0.045	1.06 ± 0.033	1.09 ± 0.031
AARS2 (UniProt Q5JTZ9)	0.981 ± 0.0018	0.96 ± 0.037	0.983 ± 0.035	0.972 ± 0.018	0.97 ± 0.044	0.957 ± 0.035
UniProt Q5THK1 and related entries	0.989 ± 0.043	0.98 ± 0.017	0.974 ± 0.02	0.964 ± 0.068	0.93 ± 0.051	0.929 ± 0.062
UniProt Q15910 and related entries	1.02 ± 0.04	1.08 ± 0.038	1.09 ± 0.038	1.12 ± 0.023	1.12 ± 0.026	1.21 ± 0.03
UniProt Q15906 and related entries	0.994 ± 0.068	1.04 ± 0.06	1.05 ± 0.095	1.09 ± 0.097	1.07 ± 0.096	1.14 ± 0.1

A second format for part of the listing above:
Target,NP40-soluble protein abundance (concentration: 1mM),NP40-soluble protein abundance (concentration: 2mM),NP40-soluble protein abundance (concentration: 4mM),NP40-soluble protein abundance (concentration: 6mM),NP40-soluble protein abundance (concentration: 8mM),NP40-soluble protein abundance (concentration: 10mM)
UniProt Q3B7T1 and related entries,1.01 ± 0.01,0.986 ± 0.016,0.988 ± 0.039,0.981 ± 0.046,1.009 ± 0.0097,0.988 ± 0.044
FSCN1 (UniProt Q16658),0.979 ± 0.0099,0.992 ± 0.027,1 ± 0.015,1.04 ± 0.045,1.02 ± 0.068,1.02 ± 0.039
UniProt Q53H47 and related entries,1.017 ± 0.0058,1.03 ± 0.015,1.02 ± 0.02,1.02 ± 0.015,1.007 ± 0.0082,1.01 ± 0.045
Q5TH58 and related entries (UniProt Q9H6K1),0.998 ± 0.02,1.03 ± 0.039,0.9959 ± 0.0093,1.006 ± 0.0065,0.974 ± 0.0093,0.989 ± 0.019
UniProt Q2M296 and related entries,0.97439 ± 0.00096,1.03 ± 0.039,1 ± 0.033,1.08 ± 0.071,1.08 ± 0.043,1.09 ± 0.1

Additional records

Target	NP40-soluble protein abundance (concentration: 1mM)	NP40-soluble protein abundance (concentration: 2mM)	NP40-soluble protein abundance (concentration: 4mM)	NP40-soluble protein abundance (concentration: 6mM)	NP40-soluble protein abundance (concentration: 8mM)	NP40-soluble protein abundance (concentration: 10mM)
UBE3C (UniProt Q15386)	0.927 ± 0.024	0.9294 ± 0.0015	0.946 ± 0.023	0.935 ± 0.033	0.961 ± 0.026	0.957 ± 0.038
UniProt Q5RI15 and related entries	1.12 ± 0.073	1.13 ± 0.1	1.05 ± 0.034	1.1 ± 0.044	1.05 ± 0.049	1.11 ± 0.04
UniProt Q5JS37 and related entries	0.973 ± 0.021	0.967 ± 0.053	0.963 ± 0.056	1 ± 0.042	1 ± 0.041	0.98 ± 0.076
Q5TZT0 and related entries (UniProt Q9NSU2)	0.9813 ± 0.0085	0.9854 ± 0.0071	0.9796 ± 0.007	0.968 ± 0.024	0.961 ± 0.028	0.972 ± 0.019
UniProt Q5F1R6 and related entries	1.044 ± 0.0025	1.12 ± 0.041	1.123 ± 0.0067	1.11 ± 0.066	1.09 ± 0.019	1.11 ± 0.035
PPP2R5A (UniProt Q15172)	1 ± 0.035	0.995 ± 0.0064	1.02 ± 0.037	0.962 ± 0.017	0.973 ± 0.033	0.97 ± 0.016
UniProt Q16630-2|Q16630	1.067 ± 0.004	1.12 ± 0.043	1.149 ± 0.0081	1.22 ± 0.025	1.3 ± 0.017	1.51 ± 0.045
FAM102B (UniProt Q5T8I3)	1.02 ± 0.046	0.998 ± 0.032	0.984 ± 0.02	1.01 ± 0.031	1.01 ± 0.017	0.9907 ± 0.0067
UniProt Q5T3I0 and related entries	1.14 ± 0.029	1.2 ± 0.042	1.21 ± 0.042	1.21 ± 0.047	1.22 ± 0.024	1.3 ± 0.079
UniProt Q4AE62 and related entries	0.99 ± 0.033	0.9546 ± 0.0082	0.966 ± 0.014	0.972 ± 0.0099	0.991 ± 0.01	0.9608 ± 0.0068
C9orf64 (UniProt Q5T6V5)	0.982 ± 0.041	0.935 ± 0.063	1 ± 0.02	0.937 ± 0.025	0.98 ± 0.016	0.937 ± 0.028
VMA21 (UniProt Q3ZAQ7)	0.9605 ± 0.0027	0.98211 ± 0.0008	0.9534 ± 0.0027	0.947 ± 0.078	0.938 ± 0.028	0.9298 ± 0.008
UniProt Q3KQU3-4|Q3KQU3	1.08 ± 0.018	1.16 ± 0.09	1.13 ± 0.035	1.065 ± 0.0046	1.03 ± 0.047	1.07 ± 0.043
SKIV2L (UniProt Q15477)	0.823 ± 0.096	0.808 ± 0.13	0.805 ± 0.11	0.77 ± 0.063	0.745 ± 0.076	0.754 ± 0.068
Q5JTV1 and related entries (UniProt Q9UKD1)	1.02 ± 0.019	1.03 ± 0.029	1.039 ± 0.0083	0.9994 ± 0.0089	0.984 ± 0.048	0.978 ± 0.047
UniProt Q5SWX8	0.983 ± 0.015	0.966 ± 0.042	0.9843 ± 0.0077	0.981 ± 0.042	1.02 ± 0.018	1.01 ± 0.015
UniProt Q15633 and related entries	0.963 ± 0.015	0.964 ± 0.024	0.995 ± 0.019	0.984 ± 0.049	0.977 ± 0.044	0.979 ± 0.064
CCDC58 (UniProt Q4VC31)	1.01 ± 0.029	1.02 ± 0.037	0.987 ± 0.048	0.976 ± 0.039	0.965 ± 0.051	0.945 ± 0.066
UniProt Q5TDH0 and related entries	1 ± 0.017	0.985 ± 0.034	0.9817 ± 0.0095	0.965 ± 0.017	0.966 ± 0.028	0.956 ± 0.047
UniProt Q15365	1.031 ± 0.0057	1.04 ± 0.038	1.04 ± 0.033	1 ± 0.02	1.01 ± 0.014	1.01 ± 0.03
